The results in this text go back to the supplement of paper PMC4604168 (melanoma cell lines).

Molecules are shown by their SMILES. The list shows a part of the results. Many values rest on one well or one pass, so single values are uncertain.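 Imaging used 1,536-well plates; nuclei positive for cleaved PARP by antibody were divided by total DNA-stained nuclei to yield the apoptosis fraction. Doses for screening kept most cells viable, and cell lines differ markedly in resting and induced cleaved-PARP levels.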

The test has as its system SkMel30. The experiment in a line: cleaved PARP positive nuclei fraction relative to DMSO control; melanoma cells; higher = more apoptosis. The settings on record: library dose: low library concentration; 72 h.
Consider `N.N.[Cl][Pt][Cl]` [cisplatin] + Cc1cc(N2CCOCC2)cc2[nH]c(-c3c(NC[C@@H](O)c4cccc(Cl)c4)cc[nH]c3=O)nc12 [BMS536924] (first compound 1.6 µM, partner dose 0.2 µM), for which the “cleaved PARP positive nuclei fraction” value stood at 73.9%.

Consider `CC1(C)CCC(c2ccc(Cl)cc2)=C(CN2CCN(c3ccc(C(=O)NS(=O)(=O)c4ccc(N[C@H](CCN5CCOCC5)CSc5ccccc5)c(S(=O)(=O)C(F)(F)F)c4)cc3)CC2)C1` + O=C(Oc1ccc([N+](=O)[O-])cc1)N1CCC(C(O)(c2ccc3c(c2)OCO3)c2ccc3c(c2)OCO3)CC1 [JZL184] (first compound 0.4 µM, partner dose 1 µM), for which the “cleaved PARP positive nuclei fraction” value is 439%.

As for `Cc1cc(Nc2cc(N3CCN(C)CC3)nc(/C=C/c3ccccc3)n2)n[nH]1` + C/C(O)=C(\C#N)C(=O)Nc1cc(Br)ccc1Br [LFM-A13] (first compound 0.04 µM, partner dose 2 µM), the “cleaved PARP positive nuclei fraction” value stood at 34.7%.

In the case of `N.N.[Cl][Pt][Cl]` [cisplatin] + OCCn1cc(-c2cnc3nnn(Cc4ccc5ncccc5c4)c3n2)cn1 [PF04217903] (first compound 1.6 µM, partner dose 1 µM), the “cleaved PARP positive nuclei fraction” value amounted to 58.7%.

Take `Cn1cc(C2=C(c3cn(C4CCN(Cc5ccccn5)CC4)c4ccccc34)C(=O)NC2=O)c2ccccc21` [Enzastaurin] + COc1ccc(COc2ccc(Cc3cnc(N)nc3N)cc2OC)cc1 [GW2580] (first compound 0.8 µM, partner dose 1 µM): the “cleaved PARP positive nuclei fraction” value was determined as 30.7%.

In the case of `Cn1cc(C2=C(c3cn(C4CCN(Cc5ccccn5)CC4)c4ccccc34)C(=O)NC2=O)c2ccccc21` [Enzastaurin] + c1cc(-c2cnn3cc(-c4ccc(OCCN5CCCCC5)cc4)cnc23)ccn1 [Dorsomorphin] (first compound 0.8 µM, partner dose 0.4 µM), the “cleaved PARP positive nuclei fraction” value is 22.7%.

As to `C[As](C)SC[C@H](NC(=O)CC[C@H](N)C(=O)O)C(=O)NCC(=O)O` [Darinaparsin] + C=CCn1c(=O)c2cnc(Nc3ccc(N4CCN(C)CC4)cc3)nc2n1-c1cccc(C(C)(C)O)n1 [MK1775] (first compound 0.4 µM, partner dose 0.02 µM), the “cleaved PARP positive nuclei fraction” value came to 88.7%.

Take `Cn1cc(C2=C(c3cn(C4CCN(Cc5ccccn5)CC4)c4ccccc34)C(=O)NC2=O)c2ccccc21` [Enzastaurin] + OCCn1cc(-c2cnc3nnn(Cc4ccc5ncccc5c4)c3n2)cn1 [PF04217903] (first compound 0.8 µM, partner dose 1 µM): the “cleaved PARP positive nuclei fraction” value was found to be 57.4%.

Regarding `N.N.[Cl][Pt][Cl]` [cisplatin] + CN(NC(=O)CC(=O)NN(C)C(=S)c1ccccc1)C(=S)c1ccccc1 [STA4783] (first compound 1.6 µM, partner dose 0.006 µM), the “cleaved PARP positive nuclei fraction” value was 66.7%.

With `C=C(c1ccc(C(=O)O)cc1)c1cc2c(cc1C)C(C)(C)CCC2(C)C` [Bexarotene] + O=C(Oc1ccc([N+](=O)[O-])cc1)N1CCC(C(O)(c2ccc3c(c2)OCO3)c2ccc3c(c2)OCO3)CC1 [JZL184] (first compound 2 µM, partner dose 1 µM), the “cleaved PARP positive nuclei fraction” value is 193%.

In the case of `Cn1sc(=O)n(Cc2ccccc2)c1=O` + O=C(Oc1ccc([N+](=O)[O-])cc1)N1CCC(C(O)(c2ccc3c(c2)OCO3)c2ccc3c(c2)OCO3)CC1 [JZL184] (first compound 0.4 µM, partner dose 1 µM), the “cleaved PARP positive nuclei fraction” value was 133%.

As for `C[As](C)SC[C@H](NC(=O)CC[C@H](N)C(=O)O)C(=O)NCC(=O)O` [Darinaparsin] + COc1cc(Nc2ncc(F)c(Nc3ccc4c(n3)NC(=O)C(C)(C)O4)n2)cc(OC)c1OC [Tamatinib] (first compound 0.4 µM, partner dose 0.4 µM), the “cleaved PARP positive nuclei fraction” value came out at 78.7%.

Turning to `CNC(=O)c1cc(Oc2ccc(NC(=O)Nc3ccc(Cl)c(C(F)(F)F)c3)cc2)ccn1` [sorafenib] + Cc1cc(SCc2sc(-c3ccc(C(F)(F)F)c(F)c3)nc2C)ccc1OCC(=O)O [GW0742] (first compound 0.4 µM, partner dose 2 µM), the “cleaved PARP positive nuclei fraction” value stood at 86.8%.

As for `Cn1cc(C2=C(c3cn(C4CCN(Cc5ccccn5)CC4)c4ccccc34)C(=O)NC2=O)c2ccccc21` [Enzastaurin] + COC(=O)c1sccc1S(=O)(=O)Nc1ccc(Nc2ccccc2)cc1OC [GSK0660] (first compound 0.8 µM, partner dose 1 µM), the “cleaved PARP positive nuclei fraction” value was 75.4%.
